Test system: Δ60HsCYP51
Experiment: CYP51 reconstitution assay (IC50), Δ60HsCYP51
Assay type: biochemical, human
Settings: CaCYP51 over Δ60HsCYP51
Experimental: CYP51 reconstitution assays. […] Azoles were introduced using 2.5 μL of stock solutions in DMSO. […] Each IC50 experiment was performed in duplicate.

Row | Compound | Selectivity Hs/Ca based on IC50 [fold]
1 | O=C(NCc1ccc(Cl)cc1Cl)C(Cn1ccnc1)c1ccc(Cl)cc1 (stereo not shown) [Compound 5 f, 2‐(4‐Chlorophenyl)‐N‐(2,4‐dichlorobenzyl)‐3‐(1H‐imidazol‐1‐yl)propanamide] | 8.1
2 | CC[C@@H]([C@H](C)O)n1ncn(-c2ccc(N3CCN(c4ccc(OC[C@@H]5CO[C@@](Cn6cncn6)(c6ccc(F)cc6F)C5)cc4)CC3)cc2)c1=O [posaconazole, reference compound] | 615
3 | O=C(NCc1ccc(Cl)cc1)C(Cn1ccnc1)c1ccc(Cl)cc1 (stereo not shown) [Compound 5 d, N‐(4‐Chlorobenzyl)‐2‐(4‐chlorophenyl)‐3(1H‐imidazol‐1‐yl)propanamide] | 8.6
4 | O=C(NCc1ccc(NS(=O)(=O)c2ccc(Cl)cc2)cc1)C(Cn1cncn1)c1ccccc1 (stereo not shown) [Compound 12 c, N‐(4‐((4‐chlorophenyl)sulfonamido)benzyl)‐2‐phenyl‐3‐(1H‐1,2,4‐triazol‐1‐yl)propanamide] | 461
